From PubChem BioAssay AID1439 (NMMLSC, 2008)
The whole screen tested about 220,000 compounds, of which about 770 (0.35%) were called active. Inconclusive means that the source gave no clear call. Such entries were picked first, then a sample of the others. Cut-off read from the data, not from the text of the source: active = binding response below about 49% or above about 150%; inconclusive = no clear call, values can overlap the other calls; inactive = in between.

The chains behind the UniProt entries cited, without tags or fusion partners.
UniProt P09471, whole entry, looked up: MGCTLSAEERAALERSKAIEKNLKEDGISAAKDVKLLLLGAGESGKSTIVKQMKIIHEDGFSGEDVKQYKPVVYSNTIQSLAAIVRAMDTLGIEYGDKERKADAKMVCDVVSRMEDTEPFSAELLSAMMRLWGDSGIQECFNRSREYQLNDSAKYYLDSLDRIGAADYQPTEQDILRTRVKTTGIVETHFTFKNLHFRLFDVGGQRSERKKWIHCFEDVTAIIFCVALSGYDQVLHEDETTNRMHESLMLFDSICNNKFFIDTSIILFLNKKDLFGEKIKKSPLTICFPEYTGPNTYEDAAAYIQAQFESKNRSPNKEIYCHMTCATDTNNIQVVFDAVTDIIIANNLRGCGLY

biological target: Guanine nucleotide-binding protein G(o) subunit alpha (Homo sapiens) (UniProt P09471); assay: compounds changing RGS7 association with Galphao – biochemical, multiplexed bead flow cytometry, primary screen (AID 1439); details: at 10 µM, actives lie on both sides;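 note: fluorescent Galphao held in activated GDP-AlF4 state binding bead-coupled RGS7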

Row | Structure (SMILES) | binding response (% of control)
1 | CCOc1ccc(N=Cc2c(O)n(-c3cc(C)cc(C)c3)c(=O)[nH]c2=O)cc1 | inconclusive: 130%
2 | CCOc1cc(/C=C2\C(=O)NC(=O)N(CCc3ccc(F)cc3)C2=O)ccc1O | inconclusive: 90.5%
3 | CCCCn1c(O)c(/C=N/NC(=O)c2ccncc2)c(=O)[nH]c1=O | inconclusive: 100%
4 | O=c1[nH]c(=S)n(-c2ccccc2)c(O)c1C=NCc1ccccn1 | inconclusive: 155%
5 | CC(=O)N1N=C2C3CCN(CC3)C2C1c1ccc(F)cc1 (centres undefined) | inactive: 107%
6 | CC(=NCCc1c[nH]c2ccccc12)c1c(O)n(Cc2ccccc2)c(=O)[nH]c1=O | inconclusive: 74.8%
7 | Cn1c(O)c(C=NCCN2CCNCC2)c(=O)[nH]c1=O | inconclusive: 78.5%
8 | Cc1cccc(-n2c(O)c(/C=C3/C(c4ccccc4)=Nc4ccccc43)c(=O)[nH]c2=O)c1 | inconclusive: 86.8%
9 | Cc1ccc(/C=C2/C(=O)NC(=O)N(Cc3ccc(F)cc3)C2=O)o1 | inconclusive: 82.2%
10 | CCCCC(=O)N/N=C/c1c(O)n(-c2cccc3ccccc23)c(=O)[nH]c1=O | inconclusive: 102%
11 | COc1ccc(CN2C(=O)NC(=O)/C(=C/c3cc(OC)c(OC)c(OC)c3)C2=O)cc1 | inconclusive: 74.9%
12 | c1cncc(C2Nc3cccc4cccc(c34)N2)c1 | inconclusive: 95%
13 | CCCCC/C(=N/O)c1c(C)[nH]c2ccccc12 | inconclusive: 108%
14 | CCCCn1c(O)c(C(=O)/C=C/c2c[nH]c3ccccc23)c(=O)[nH]c1=O | inconclusive: 107%
15 | CCC(=O)c1ccc(OC(=O)N(C)c2ccccc2)cc1 | inconclusive: 84.2%
16 | CC(C)Oc1ccc(CC2(CCc3ccncc3)C(=O)NC(=O)NC2=O)cc1 | inconclusive: 146%
17 | CN1CCN(c2ccc([N+](=O)[O-])c(Sc3ccccn3)c2)CC1 | inconclusive: 69.1%
18 | O=c1[nH]c(=O)n(Cc2ccc(F)cc2)c(O)c1C=NCCCO | active: 156% [activator]
19 | O=C(O)c1cccc(N=Nc2c(O)[nH]c(=O)[nH]c2=O)c1 | inconclusive: 74.4%
20 | CN(C)C(=O)Oc1ccnc2cc(Cl)ccc12 | inconclusive: 105%
21 | CCOP(=O)(OCC)c1cc(C)c(O)c(C(C)(C)C)c1 | inconclusive: 99.2%
22 | CCC1(OC(=O)CN)C(=O)OCc2c1cc1n(c2=O)Cc2cc3ccccc3nc2-1 (centres undefined) | inconclusive: 102%
23 | O=P1(Nc2ccc(F)cc2)COc2ccccc2OC1 | inactive: 107%
24 | O=c1[nH]c(=O)n(CCC2=CCCCC2)c(O)c1/C=N/N1CCOCC1 | inconclusive: 10.3%
